Data set [1] addresses LAR protein (PTPRF, receptor-type protein tyrosine phosphatase F), endogenous on human cell lines (Homo sapiens) (UniProt P10586). Put plainly: pull-down. To be noted: 2'-F on all pyrimidines, 2'-OH purines; biotinylated aptamer on MCF-7 cells, streptavidin beads, BSA competitor, LAR identified by mass spectrometry; protein on the cell surface; label: radiolabel, biotin or Alexa Fluor 647/680.

Chains of the proteins cited; added tags and fusions are not shown. Residues count along the entry.
UniProt P10586, 30-1907: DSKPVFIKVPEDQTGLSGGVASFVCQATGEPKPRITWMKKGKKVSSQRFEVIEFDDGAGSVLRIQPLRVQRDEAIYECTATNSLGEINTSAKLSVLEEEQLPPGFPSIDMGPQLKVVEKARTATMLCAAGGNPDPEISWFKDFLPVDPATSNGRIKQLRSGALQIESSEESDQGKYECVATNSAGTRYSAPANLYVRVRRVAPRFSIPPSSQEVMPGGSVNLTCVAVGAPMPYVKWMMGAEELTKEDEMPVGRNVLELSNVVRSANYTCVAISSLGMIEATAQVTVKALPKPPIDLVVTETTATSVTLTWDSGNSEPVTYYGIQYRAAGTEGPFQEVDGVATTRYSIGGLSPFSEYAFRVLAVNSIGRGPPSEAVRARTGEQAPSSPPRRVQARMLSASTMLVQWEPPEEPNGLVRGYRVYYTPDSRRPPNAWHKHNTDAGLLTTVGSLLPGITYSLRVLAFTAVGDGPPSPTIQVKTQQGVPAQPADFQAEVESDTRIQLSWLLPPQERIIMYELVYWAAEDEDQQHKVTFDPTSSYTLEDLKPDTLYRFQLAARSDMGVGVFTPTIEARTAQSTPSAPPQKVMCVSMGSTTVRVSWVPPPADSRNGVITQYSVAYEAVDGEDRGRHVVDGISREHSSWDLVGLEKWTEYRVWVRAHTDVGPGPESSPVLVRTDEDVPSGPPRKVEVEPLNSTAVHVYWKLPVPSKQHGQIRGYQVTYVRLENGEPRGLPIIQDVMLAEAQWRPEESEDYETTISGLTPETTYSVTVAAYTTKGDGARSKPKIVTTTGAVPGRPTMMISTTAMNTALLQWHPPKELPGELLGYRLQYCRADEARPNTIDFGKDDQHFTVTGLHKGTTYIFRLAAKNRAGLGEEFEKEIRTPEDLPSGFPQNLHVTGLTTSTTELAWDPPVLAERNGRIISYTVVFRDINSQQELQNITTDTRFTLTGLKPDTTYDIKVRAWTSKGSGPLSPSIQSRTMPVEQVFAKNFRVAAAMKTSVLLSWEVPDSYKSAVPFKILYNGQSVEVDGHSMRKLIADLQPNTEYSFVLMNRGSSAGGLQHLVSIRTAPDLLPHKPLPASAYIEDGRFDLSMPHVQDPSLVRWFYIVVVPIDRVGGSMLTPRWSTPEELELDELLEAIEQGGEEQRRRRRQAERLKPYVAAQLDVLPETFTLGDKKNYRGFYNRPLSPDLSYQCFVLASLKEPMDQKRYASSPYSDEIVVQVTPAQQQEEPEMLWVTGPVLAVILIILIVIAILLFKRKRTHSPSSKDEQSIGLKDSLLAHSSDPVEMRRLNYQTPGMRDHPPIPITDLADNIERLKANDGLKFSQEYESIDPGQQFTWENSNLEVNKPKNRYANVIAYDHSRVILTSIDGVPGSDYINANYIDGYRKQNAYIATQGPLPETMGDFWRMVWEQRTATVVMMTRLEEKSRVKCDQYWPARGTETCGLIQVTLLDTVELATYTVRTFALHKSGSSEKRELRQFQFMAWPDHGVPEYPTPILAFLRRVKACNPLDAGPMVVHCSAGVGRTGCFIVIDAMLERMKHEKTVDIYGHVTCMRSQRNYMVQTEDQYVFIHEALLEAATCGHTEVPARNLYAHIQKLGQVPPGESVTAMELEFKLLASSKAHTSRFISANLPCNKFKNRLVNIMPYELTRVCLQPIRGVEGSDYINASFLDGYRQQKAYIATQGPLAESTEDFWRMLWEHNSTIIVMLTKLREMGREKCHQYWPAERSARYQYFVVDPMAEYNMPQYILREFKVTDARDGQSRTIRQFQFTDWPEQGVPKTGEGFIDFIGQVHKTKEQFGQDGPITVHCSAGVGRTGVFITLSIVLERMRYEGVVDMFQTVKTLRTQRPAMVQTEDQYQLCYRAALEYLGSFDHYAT

Data set [2] shares this target. Kind of data set: activity in cells. To be noted: 2'-F on all pyrimidines, 2'-OH purines; HUVEC endothelial tube formation on Matrigel, 16 h; inhibition, target LAR presumed; protein on the cell surface; dose not given here.
The target is the same in data set [3]. Put plainly: flow cytometry. To be noted: 2'-F on all pyrimidines, 2'-OH purines; MCF-7 cells, 5 nM, 30 min; protein on the cell surface; label: radiolabel, biotin or Alexa Fluor 647/680.
Data set [4] shares this target. Put plainly: binding assay. As to conditions: 2'-F on all pyrimidines, 2'-OH purines; UV crosslinking on HEK293-KDR cells, 25 nM, 37 C 15 min; band of LAR size; protein on the cell surface; label: radiolabel, biotin or Alexa Fluor 647/680.
The target of data set [5] is LAR protein (PTPRF), longest isoform, overexpressed in transfected HEK293 (Homo sapiens) (UniProt P10586). Put plainly: binding assay. To be noted: 2'-F on all pyrimidines, 2'-OH purines; radiolabeled aptamer on LAR-transfected HEK293, 15 min; 2x at 5 nM, 5x at 50 nM; protein on the cell surface; protein details: expression plasmid for the longest isoform; label: radiolabel, biotin or Alexa Fluor 647/680.

For some assays here: At least one result comes from cells or an extract, where the contact may be indirect. For some assays here: Construct, isoform or probe ends are uncertain for at least one entry.

With “GGGAGAUGCUCUGUCAGACUACGACUGUCCCAGUAUGACGCGACUGCUUAGGUGGGAUGUUUCCCAUGCCUCGACUGGCUGGCAGGUUGAUGACAAG [V8 aptamer]”, the binding result in data set [1], in data set [3], in data set [4] and in data set [5] was “binds” each time. Moreover, the functional effect of the aptamer (tubes per node (control 2)) in data set [2] was 0.72.

The record behind these values is US20130266516.
